# The source gives many values for each of these; only a part stands here.
# Test system: TFG-MET allograft tumors
# Test: RNA-sequencing, differential expression and GSEA of TFG-MET allograft tumors
# Type: in vivo, mouse
# Settings: CAP.v.Veh
# Protocol: Error bars display standard error of mean, statistical significance was determined using t-test analysis. (****;p<0.0001, ***;p<0.001, **;p<0.01, *;p<0.05). […] Each dot represents an individual replicate. Error bars display standard error of the mean.
# Each dot represents one gene.
# [1] = GOCC_PERINUCLEAR_REGION_OF_CYTOPLASM
# [2] = GOCC_PHOSPHATIDYLINOSITOL_3_KINASE_COMPLEX
# [3] = GOCC_PLASMA_MEMBRANE_SIGNALING_RECEPTOR_COMPLEX
# [4] = GOCC_PLATELET_ALPHA_GRANULE_LUMEN
# [5] = GOCC_POLYMERIC_CYTOSKELETAL_FIBER
# [6] = GOCC_POSTSYNAPTIC_SPECIALIZATION_MEMBRANE
# [7] = GOCC_PROTEASOME_ACCESSORY_COMPLEX
# [8] = GOCC_PROTEIN_COMPLEX_INVOLVED_IN_CELL_ADHESION
# [9] = GOCC_RECYCLING_ENDOSOME_MEMBRANE
# [10] = GOCC_ROUGH_ENDOPLASMIC_RETICULUM
# [11] = GOCC_ROUGH_ENDOPLASMIC_RETICULUM_MEMBRANE
# [12] = GOCC_SCF_UBIQUITIN_LIGASE_COMPLEX
# [13] = GOCC_SCHAFFER_COLLATERAL_CA1_SYNAPSE
# [14] = GOCC_SMOOTH_ENDOPLASMIC_RETICULUM
smiles,measurement,setting,value
CNC(=O)c1ccc(-c2cnc3ncc(Cc4ccc5ncccc5c4)n3n2)cc1F [Capmatinib],NES,GOCC_PERINUCLEAR_ENDOPLASMIC_RETICULUM,-0.7376
same,ES,[1],-0.1899
same,NES,[1],-0.9124
same,ES,GOCC_PHOSPHATASE_COMPLEX,-0.2642
same,NES,GOCC_PHOSPHATASE_COMPLEX,-0.9605
same,ES,[2],-0.4324
same,NES,[2],-1.377
same,ES,GOCC_PIGMENT_GRANULE,0.2169
same,NES,GOCC_PIGMENT_GRANULE,1.085
same,ES,GOCC_PLASMA_MEMBRANE_RAFT,-0.2417
same,NES,GOCC_PLASMA_MEMBRANE_RAFT,-0.9954
same,ES,[3],0.1657
same,NES,[3],0.8969
same,ES,GOCC_PLATELET_ALPHA_GRANULE,0.1803
same,NES,GOCC_PLATELET_ALPHA_GRANULE,0.8681
same,ES,[4],0.2296
same,NES,[4],1.037
same,ES,GOCC_PODOSOME,-0.3106
same,NES,GOCC_PODOSOME,-1.005
same,ES,GOCC_POLE_PLASM,-0.4824
same,NES,GOCC_POLE_PLASM,-1.316
same,ES,[5],-0.2011
same,NES,[5],-0.9608
same,ES,GOCC_PORE_COMPLEX,-0.2826
same,NES,GOCC_PORE_COMPLEX,-0.8473
same,ES,GOCC_POSTSYNAPTIC_ENDOSOME,0.4318
same,NES,GOCC_POSTSYNAPTIC_ENDOSOME,1.356
same,ES,[6],0.1653
same,NES,[6],0.8215
same,ES,GOCC_PRC1_COMPLEX,-0.392
same,NES,GOCC_PRC1_COMPLEX,-1.07
same,ES,GOCC_PRESYNAPSE,0.1605
same,NES,GOCC_PRESYNAPSE,0.9597
same,ES,[7],-0.3722
same,NES,[7],-1.158
same,ES,[8],-0.3375
same,NES,[8],-1.138
same,ES,GOCC_PSEUDOPODIUM,0.3771
same,NES,GOCC_PSEUDOPODIUM,1.184
same,ES,GOCC_RECEPTOR_COMPLEX,0.1635
same,NES,GOCC_RECEPTOR_COMPLEX,0.9687
same,ES,GOCC_RECYCLING_ENDOSOME,0.1904
same,NES,GOCC_RECYCLING_ENDOSOME,1.032
same,ES,[9],0.1916
same,NES,[9],0.938
same,ES,GOCC_RETROMER_COMPLEX,-0.4587
same,NES,GOCC_RETROMER_COMPLEX,-1.3508
same,ES,GOCC_RIBOSOMAL_SUBUNIT,-0.225
same,NES,GOCC_RIBOSOMAL_SUBUNIT,-0.9859
same,ES,[10],0.2007
same,NES,[10],0.9282
same,ES,[11],-0.3098
same,NES,[11],-0.9772
same,ES,GOCC_RUFFLE,-0.2488
same,NES,GOCC_RUFFLE,-1.085
same,ES,GOCC_RUFFLE_MEMBRANE,-0.2397
same,NES,GOCC_RUFFLE_MEMBRANE,-0.963
same,ES,GOCC_SARCOLEMMA,0.1843
same,NES,GOCC_SARCOLEMMA,0.954
same,ES,GOCC_SARCOPLASM,0.1776
same,NES,GOCC_SARCOPLASM,0.8371
same,ES,[12],-0.23
same,NES,[12],-0.864
same,ES,[13],0.2674
same,NES,[13],1.243
same,ES,GOCC_SIN3_TYPE_COMPLEX,-0.4457
same,NES,GOCC_SIN3_TYPE_COMPLEX,-1.216
same,ES,GOCC_SITE_OF_POLARIZED_GROWTH,-0.1856
same,NES,GOCC_SITE_OF_POLARIZED_GROWTH,-0.8172
same,ES,GOCC_SMALL_RIBOSOMAL_SUBUNIT,-0.2971
same,NES,GOCC_SMALL_RIBOSOMAL_SUBUNIT,-1.148
same,ES,[14],0.2223
same,NES,[14],0.8413
same,ES,GOCC_SODIUM_CHANNEL_COMPLEX,0.3002
same,NES,GOCC_SODIUM_CHANNEL_COMPLEX,1.025
same,ES,GOCC_SPINDLE_MICROTUBULE,-0.2513
same,NES,GOCC_SPINDLE_MICROTUBULE,-0.9618
same,ES,GOCC_SPINDLE_MIDZONE,-0.2787
same,NES,GOCC_SPINDLE_MIDZONE,-0.9342
same,ES,GOCC_STEREOCILIUM_BUNDLE,-0.2611

# Reference: article PMC11157767 (Molecular Cancer, 2024)
